No constants are given. Whether binding was seen depends on the method and setting. In cells and extracts the contact can be indirect. Binding calls can cover weak binding; strength is not graded here.
Target: protein binding domain (PBD) of the ARF6 effector protein GGA3 (UniProt Q9NZ52)
Assay: pull-down

binding: binds
Substance: ARF6, GTP-bound form (from UniProt P62331 1-175)

Source: paper doi:10.1101/189621
